Assay results published in the supplement of paper PMC10338343.
± gives the standard deviation. The list shows a part of the results, in another mix than the full data. The uncertainty is large for many entries.

Tested on: MIWI (PIWIL1) piRISC loaded with L1MC piRNA (30 nt)
Assay: pre-steady-state target cleavage rate (min^-1); MIWI and MILI are mouse PIWI proteins and EfPiwi is from a freshwater sponge; tags in brackets are library labels; higher = faster piRNA-guided slicing of the target
Settings: guide: L1MC piRNA 5'p-UAACUAAAUACUAUGCAAGCUGUAGGUCCU
In short: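 In Cleave-'n-Seq, a transcribed, DNA-blocked target RNA library (0.1 nM) was combined with 1 nM active affinity-purified piRISC bearing one synthetic guide, with or without 500 nM GTSF1 partner protein. Reactions ran in HEPES–potassium acetate buffer at 33 °C for 0–8 or 0–960 min. Uncleaved targets were sequenced and normalised to depth and to weakly complementary targets, three trials were pooled, and k3 was capped at 0.0001 min^-1. The pre-steady-state cleavage rate was obtained by fitting a burst-and-steady-state model.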

[1] = auxiliary factor: 500 nM mouse GTSF1
[2] = auxiliary factor: none (no GTSF1)

Sequence	pre-steady-state target cleavage rate [1]	pre-steady-state target cleavage rate [2]
UCGACCUACAGCUUGCAAAGUAUAUAGUUA	0.855 ± 0.055	0.0157 ± 0.0033
UCCACCUACACCAUGCAUAGUAUUUAGUUA	0.719 ± 0.036	0.0161 ± 0.003
UGGACCUACAGCUUGCAUACAAUUUAGAAA	0.00256 ± 0.004	0.000913 ± 0.0046
UGGAGCAACAGCUUGCAUAGUAUUUAGUUA	1.39 ± 0.044	0.0851 ± 0.016
UCCUGGAACAGCUUGCAUAGUAUUAUGUUA	0.169 ± 0.023	0.013 ± 0.0044
UGGACCUUCUGCUUGCAUAGUAUUUAGUUA	1.3 ± 0.066	0.0534 ± 0.0096
UCGACCUCACAGCUUGCAUAGUAUUUAGUUA	1.38 ± 0.05	0.0855 ± 0.017
ACGACCUACAGCUUGCAAAGUAUUUAGUUA	1.56 ± 0.057	0.0528 ± 0.011
UCCUCCUACCAGCUUGCAUAGUAUUUAGUUA	1.15 ± 0.055	0.0479 ± 0.011
UCCUGGAUGUCGAUGGAUACUAUUUAGUUA	0.000383 ± 0.017	0.000394 ± 0.013
UCCUCCAACAGCUUGCAUAGUAUUUAGUAA	0.675 ± 0.03	0.0256 ± 0.0063
UCGACCGACAGCUUGCAUAGUAUUUAGUUA	1.41 ± 0.05	0.0741 ± 0.012
UCGUGCUACAGCUUGCAUAGUAUUUAGUAA	0.926 ± 0.053	0.0286 ± 0.0054
AGGAGCUACACCUUGCAUAGUAUUUAGUUA	1.36 ± 0.044	0.0609 ± 0.012
UGGACCUACAGCAUGCAUAGUAUUUAGUAA	0.977 ± 0.075	0.0303 ± 0.0065
UCCUGGUCCAGCUUGCAUAGUAUUUAGUUA	0.717 ± 0.055	0.0383 ± 0.0079
AGGACCUCCAGCUUGCAUAGUAUUUAGUUA	1.22 ± 0.048	0.0926 ± 0.018
UCCUGGAUGUGCUUGCUAUCAUAAAUCAAA [g15:g20:cont:t1A]	0.000879 ± 0.012	0.000765 ± 0.0089
UCGACCUACAGCUUGGUUAGUAUUUAGUUA	1.42 ± 0.058	0.00908 ± 0.0026
UGGACCUACAGCUUCGAUAGUAUUUUCAAA	0.0028 ± 0.0032	0.000553 ± 0.0087

Full records as entered above.
UCCUGGAACAGCUUGCAUAGUAUUAUGUUA in the list: pre-steady-state target cleavage rate [1] = 0.169 ± 0.023; pre-steady-state target cleavage rate [2] = 0.013 ± 0.0044
UGGACCUUCUGCUUGCAUAGUAUUUAGUUA in the list: pre-steady-state target cleavage rate [1] = 1.3 ± 0.066; pre-steady-state target cleavage rate [2] = 0.0534 ± 0.0096

Additional records

Sequence	pre-steady-state target cleavage rate [1]	pre-steady-state target cleavage rate [2]
UGGACCUACUGCUUGCAUUGUAUUUAGUUA	0.868 ± 0.041	0.0358 ± 0.009
UGGACCUACAGCUUGCAUAGUAUUUAGUA	0.885 ± 0.062	0.0273 ± 0.0069
UCCACCUACAGCUUGGAUAGUAUUUAGUUA	1.44 ± 0.056	0.0469 ± 0.0082
UGGACUUACAGCUUGCAUAGUAUUUAGUUA	1.45 ± 0.063	0.081 ± 0.013
UCGAGCUACAGCUUGCUUAGUAUUUAGUUA	1.19 ± 0.053	0.0376 ± 0.0079
UCCAGCUACAGCUUGCUUAGUAUUUAGUUA	0.78 ± 0.039	0.0235 ± 0.004
UCGACCUAACAGCUUGCAUAGUAUUUAGUUA	1.15 ± 0.069	0.0849 ± 0.017
UGGACCUACAGCUUCCAUAGUAUUUACUUA	0.00345 ± 0.0045	0.000429 ± 0.0071
UCGACCUACAGCAAGCAUAGUAUUUAGUUA	1.4 ± 0.083	0.00748 ± 0.0028
UCGACCUCAGCUUGCAUAGUAUUUAGUUA	1.38 ± 0.056	0.064 ± 0.013
AGGACCUACAGCUUGCUAUAGUAUUUAGUUA	0.137 ± 0.037	0.00178 ± 0.0043
ACCUCCUACAGCUUGCAUAGUAUUUAGAAA	0.54 ± 0.061	0.00602 ± 0.0029
ACGACCUACAGCUAGCAUAGUAUUUAGUUA	1.3 ± 0.052	0.0406 ± 0.0091
UGGACCUACAGCUUGCUAUGUAUUUAGUUA	0.115 ± 0.016	0.00588 ± 0.001
UGGACCUACAGCUUGCAUAGUAUUAAGUUA	0.719 ± 0.06	0.0363 ± 0.006
UCGACCUACAGCUUGCAUAGUAUUGAGUUA	0.499 ± 0.042	0.0477 ± 0.0089
UCGACCUACAGCUUGCAUAGUAUUAGUUA	0.346 ± 0.053	0.00219 ± 0.0029
UCGACCUACUGCUUGCAUAGUAUUUAGUAA	0.797 ± 0.036	0.0434 ± 0.0074
AGGACCUACAGCUUGCAUAGAUUUUAGAAA	0.247 ± 0.071	0.00123 ± 0.0069
AGGACUCUACAGCUUGCAUAGUAUUUAGUUA	1.28 ± 0.069	0.0617 ± 0.011

Sequence	pre-steady-state target cleavage rate [1]	pre-steady-state target cleavage rate [2]
UGGACCUACAGGUUGCAUAGUAAUUAGUUA	0.731 ± 0.055	0.0177 ± 0.0042
UCCACCUACAGCUUGCAUAUUAUUUAGUUA	1.01 ± 0.075	0.0312 ± 0.007
AGGACGAACAGCUUGCAUAGUAUUUACAAA	0.245 ± 0.037	0.00641 ± 0.0027
UCCUGGAUGUCGAUGCAUAGUAUUUAGUUA [g2:g17:cont:t1A]	0.0169 ± 0.005	0.00189 ± 0.0033
UGGACCUACAGCUUGCAUAGUAUUAAGAUA	0.174 ± 0.028	0.00558 ± 0.0024
UCCUGGAUGUCGAACGAUAGUUUUUAGUUA	0.000189 ± 0.021	0.000171 ± 0.032
UCCACGUACAGCUUGCUUAGUAUUUAGUUA	1.31 ± 0.058	0.0408 ± 0.0091
UGCUCCUACAGCUUGCAUAGUAUUUAGUAA	1.07 ± 0.045	0.0382 ± 0.0079
UCGAACCUACAGCUUGCAUAGUAUUUAGUUA	1.37 ± 0.046	0.0781 ± 0.016
UCGACCUACAGCUUGCGAUAGUAUUUAGUUA	0.0797 ± 0.02	0.00114 ± 0.0072
UGGACCUACAGCUUUCAUAGUAUUUAGUUA	0.593 ± 0.032	0.0286 ± 0.0052
UGGACCAACAGCUUGCAUAGUAUUUAGUAA	1.17 ± 0.06	0.0641 ± 0.015
AGCACCUACACCUUGCAUAGUAUUUAGUUA	0.739 ± 0.074	0.0408 ± 0.0062
UCCUGGUUGUGCUUGCAUAGUAUUUAGUUA	0.584 ± 0.032	0.0455 ± 0.0097
AGGACCUACAGGAAGCAUAGUAUUUUCAAA	0.132 ± 0.024	0.000658 ± 0.0095
AGGACCUACACCUUGCAUAGUAUUAAGUUA	0.627 ± 0.054	0.0334 ± 0.0069
UCCACCUCCAGCUUGCAUAGUAUUUAGUUA	0.89 ± 0.033	0.0442 ± 0.0078
UGGACCUGCAGCUUGCAUAGUAUUUAGUUA	1.57 ± 0.099	0.0683 ± 0.013
UCGACCUACAGGUUGCAAAGUAUUUAGUUA	1.33 ± 0.054	0.0193 ± 0.0046
UGGACCUACAGCUACCAUAGUAUUUAGUUA	0.493 ± 0.043	0.00241 ± 0.0021

Some values from above:
pre-steady-state target cleavage rate [1], UGGACCUGCAGCUUGCAUAGUAUUUAGUUA is entered as 1.57 ± 0.099
pre-steady-state target cleavage rate [2], UGGACCUACAGCUUUCAUAGUAUUUAGUUA is entered as 0.0286 ± 0.0052
